Laboratory results as given in the supplement of paper PMC6411743.
± gives the standard deviation of the averaged measurements. The entries are a selection whose mix differs from that of the whole data set. Most values lie at the level of the controls, where differences are scatter.

By UniProt entry, the sequences of proteins in these tests, tags left out. Where a name states a change or a piece, a line headed by the entry shows the natural chain unless it says otherwise.
UniProt Q9Y4B4: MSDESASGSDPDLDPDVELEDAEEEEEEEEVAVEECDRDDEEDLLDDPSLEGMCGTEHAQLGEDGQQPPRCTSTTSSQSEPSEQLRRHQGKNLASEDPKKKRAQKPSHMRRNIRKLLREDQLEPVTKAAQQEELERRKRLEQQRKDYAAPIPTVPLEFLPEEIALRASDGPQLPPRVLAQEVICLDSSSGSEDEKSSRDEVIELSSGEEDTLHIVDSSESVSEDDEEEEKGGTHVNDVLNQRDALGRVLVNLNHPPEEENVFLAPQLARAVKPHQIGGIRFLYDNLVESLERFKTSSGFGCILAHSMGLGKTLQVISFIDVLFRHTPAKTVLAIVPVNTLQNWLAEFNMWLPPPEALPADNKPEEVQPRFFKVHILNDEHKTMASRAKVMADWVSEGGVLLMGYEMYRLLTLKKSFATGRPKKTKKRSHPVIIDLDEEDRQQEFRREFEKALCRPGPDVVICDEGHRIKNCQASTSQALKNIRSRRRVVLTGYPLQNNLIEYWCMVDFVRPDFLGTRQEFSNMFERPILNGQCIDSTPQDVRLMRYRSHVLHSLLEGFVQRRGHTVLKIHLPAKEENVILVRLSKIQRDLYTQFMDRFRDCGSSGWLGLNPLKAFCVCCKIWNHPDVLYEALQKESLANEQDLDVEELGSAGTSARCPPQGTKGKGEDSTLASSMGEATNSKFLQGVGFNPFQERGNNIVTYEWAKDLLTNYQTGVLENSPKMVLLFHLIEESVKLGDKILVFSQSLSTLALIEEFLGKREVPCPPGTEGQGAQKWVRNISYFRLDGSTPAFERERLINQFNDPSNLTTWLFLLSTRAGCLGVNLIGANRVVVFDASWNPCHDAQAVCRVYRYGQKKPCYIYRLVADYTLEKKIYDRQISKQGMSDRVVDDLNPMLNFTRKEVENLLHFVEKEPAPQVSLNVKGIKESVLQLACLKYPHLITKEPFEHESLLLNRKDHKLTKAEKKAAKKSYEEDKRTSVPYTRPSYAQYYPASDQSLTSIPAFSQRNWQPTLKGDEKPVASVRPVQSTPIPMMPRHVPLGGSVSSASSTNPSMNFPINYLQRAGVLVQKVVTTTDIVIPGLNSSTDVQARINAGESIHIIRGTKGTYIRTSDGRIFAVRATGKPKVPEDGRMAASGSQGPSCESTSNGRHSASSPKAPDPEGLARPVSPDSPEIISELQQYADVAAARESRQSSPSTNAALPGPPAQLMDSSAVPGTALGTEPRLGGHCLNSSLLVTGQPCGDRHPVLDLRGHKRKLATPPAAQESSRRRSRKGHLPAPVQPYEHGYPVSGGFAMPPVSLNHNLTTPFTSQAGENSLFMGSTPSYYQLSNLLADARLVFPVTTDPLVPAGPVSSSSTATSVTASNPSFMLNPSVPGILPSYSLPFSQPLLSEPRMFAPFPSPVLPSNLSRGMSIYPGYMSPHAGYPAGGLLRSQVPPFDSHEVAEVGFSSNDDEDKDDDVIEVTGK
UniProt Q9Y546: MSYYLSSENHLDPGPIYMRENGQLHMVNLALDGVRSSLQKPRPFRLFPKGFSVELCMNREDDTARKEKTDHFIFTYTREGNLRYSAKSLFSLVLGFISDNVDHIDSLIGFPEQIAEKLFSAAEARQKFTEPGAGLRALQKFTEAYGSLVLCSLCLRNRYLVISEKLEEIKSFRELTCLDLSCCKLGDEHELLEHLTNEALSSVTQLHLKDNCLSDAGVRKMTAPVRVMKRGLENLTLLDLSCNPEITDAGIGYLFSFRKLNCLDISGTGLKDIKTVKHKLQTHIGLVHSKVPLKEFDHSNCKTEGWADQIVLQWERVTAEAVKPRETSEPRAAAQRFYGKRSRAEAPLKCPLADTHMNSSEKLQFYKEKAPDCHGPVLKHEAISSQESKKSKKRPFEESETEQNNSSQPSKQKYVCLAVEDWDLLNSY
UniProt Q9Y315: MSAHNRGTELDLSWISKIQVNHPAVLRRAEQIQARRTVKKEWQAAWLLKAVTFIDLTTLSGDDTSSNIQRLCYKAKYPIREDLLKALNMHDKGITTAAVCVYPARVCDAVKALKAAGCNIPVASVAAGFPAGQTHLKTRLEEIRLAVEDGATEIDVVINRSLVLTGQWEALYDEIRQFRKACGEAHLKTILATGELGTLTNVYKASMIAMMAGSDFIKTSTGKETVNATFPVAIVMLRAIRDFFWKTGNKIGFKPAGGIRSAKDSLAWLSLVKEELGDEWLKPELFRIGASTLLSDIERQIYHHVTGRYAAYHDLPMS
UniProt Q9Y3C8: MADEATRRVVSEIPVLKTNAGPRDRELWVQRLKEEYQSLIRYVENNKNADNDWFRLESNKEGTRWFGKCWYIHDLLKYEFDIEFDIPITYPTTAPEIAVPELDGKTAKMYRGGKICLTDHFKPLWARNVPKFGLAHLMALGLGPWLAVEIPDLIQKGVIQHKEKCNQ
UniProt Q9Y2U5: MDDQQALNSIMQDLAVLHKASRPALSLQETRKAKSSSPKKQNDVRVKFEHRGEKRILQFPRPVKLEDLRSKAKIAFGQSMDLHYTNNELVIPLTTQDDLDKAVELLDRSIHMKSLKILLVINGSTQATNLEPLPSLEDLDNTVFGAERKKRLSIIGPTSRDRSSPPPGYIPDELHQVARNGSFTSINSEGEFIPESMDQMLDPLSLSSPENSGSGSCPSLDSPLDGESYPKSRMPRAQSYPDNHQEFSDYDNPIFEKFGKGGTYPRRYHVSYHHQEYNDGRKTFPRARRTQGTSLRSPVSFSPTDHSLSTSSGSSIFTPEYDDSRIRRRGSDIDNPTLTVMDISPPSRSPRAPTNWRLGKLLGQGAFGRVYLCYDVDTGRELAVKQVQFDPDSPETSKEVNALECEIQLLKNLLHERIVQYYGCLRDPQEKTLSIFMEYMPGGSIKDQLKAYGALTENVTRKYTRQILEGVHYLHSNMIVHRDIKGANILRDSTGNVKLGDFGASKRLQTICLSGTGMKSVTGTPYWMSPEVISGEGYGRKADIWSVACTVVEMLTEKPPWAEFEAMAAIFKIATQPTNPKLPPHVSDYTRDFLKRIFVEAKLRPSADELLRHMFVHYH
UniProt Q03519, whole entry: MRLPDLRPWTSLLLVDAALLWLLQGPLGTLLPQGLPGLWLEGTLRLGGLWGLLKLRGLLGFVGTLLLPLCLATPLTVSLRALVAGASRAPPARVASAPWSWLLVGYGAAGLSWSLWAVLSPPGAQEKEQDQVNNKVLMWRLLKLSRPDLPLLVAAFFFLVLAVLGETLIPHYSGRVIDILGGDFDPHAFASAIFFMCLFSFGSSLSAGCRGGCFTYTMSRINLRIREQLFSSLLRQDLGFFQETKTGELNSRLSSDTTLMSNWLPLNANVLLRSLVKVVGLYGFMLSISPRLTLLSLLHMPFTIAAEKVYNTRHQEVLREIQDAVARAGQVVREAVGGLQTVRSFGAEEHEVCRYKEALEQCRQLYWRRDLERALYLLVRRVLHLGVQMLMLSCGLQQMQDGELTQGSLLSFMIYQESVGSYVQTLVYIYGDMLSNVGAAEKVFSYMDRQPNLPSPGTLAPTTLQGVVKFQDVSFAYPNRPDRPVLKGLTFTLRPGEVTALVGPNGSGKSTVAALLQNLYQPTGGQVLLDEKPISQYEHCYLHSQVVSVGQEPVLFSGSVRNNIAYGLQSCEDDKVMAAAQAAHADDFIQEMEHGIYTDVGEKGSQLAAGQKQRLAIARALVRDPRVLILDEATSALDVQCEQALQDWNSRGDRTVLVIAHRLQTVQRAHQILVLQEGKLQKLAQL
UniProt Q9Y6G9, whole entry: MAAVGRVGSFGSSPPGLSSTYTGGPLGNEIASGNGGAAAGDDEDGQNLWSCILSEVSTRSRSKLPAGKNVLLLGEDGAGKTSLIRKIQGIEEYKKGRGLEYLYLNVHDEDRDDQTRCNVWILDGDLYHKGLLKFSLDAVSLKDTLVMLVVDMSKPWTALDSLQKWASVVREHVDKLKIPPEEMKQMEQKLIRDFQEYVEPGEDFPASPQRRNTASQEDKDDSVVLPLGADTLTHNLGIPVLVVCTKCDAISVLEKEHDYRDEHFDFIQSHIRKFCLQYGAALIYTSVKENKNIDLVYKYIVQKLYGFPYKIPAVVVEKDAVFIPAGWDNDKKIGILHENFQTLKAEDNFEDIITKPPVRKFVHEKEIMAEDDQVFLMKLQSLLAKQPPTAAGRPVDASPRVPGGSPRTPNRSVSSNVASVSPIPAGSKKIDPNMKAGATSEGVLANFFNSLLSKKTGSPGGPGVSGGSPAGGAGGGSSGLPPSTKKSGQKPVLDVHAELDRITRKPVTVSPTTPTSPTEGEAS
UniProt Q9Y6R1: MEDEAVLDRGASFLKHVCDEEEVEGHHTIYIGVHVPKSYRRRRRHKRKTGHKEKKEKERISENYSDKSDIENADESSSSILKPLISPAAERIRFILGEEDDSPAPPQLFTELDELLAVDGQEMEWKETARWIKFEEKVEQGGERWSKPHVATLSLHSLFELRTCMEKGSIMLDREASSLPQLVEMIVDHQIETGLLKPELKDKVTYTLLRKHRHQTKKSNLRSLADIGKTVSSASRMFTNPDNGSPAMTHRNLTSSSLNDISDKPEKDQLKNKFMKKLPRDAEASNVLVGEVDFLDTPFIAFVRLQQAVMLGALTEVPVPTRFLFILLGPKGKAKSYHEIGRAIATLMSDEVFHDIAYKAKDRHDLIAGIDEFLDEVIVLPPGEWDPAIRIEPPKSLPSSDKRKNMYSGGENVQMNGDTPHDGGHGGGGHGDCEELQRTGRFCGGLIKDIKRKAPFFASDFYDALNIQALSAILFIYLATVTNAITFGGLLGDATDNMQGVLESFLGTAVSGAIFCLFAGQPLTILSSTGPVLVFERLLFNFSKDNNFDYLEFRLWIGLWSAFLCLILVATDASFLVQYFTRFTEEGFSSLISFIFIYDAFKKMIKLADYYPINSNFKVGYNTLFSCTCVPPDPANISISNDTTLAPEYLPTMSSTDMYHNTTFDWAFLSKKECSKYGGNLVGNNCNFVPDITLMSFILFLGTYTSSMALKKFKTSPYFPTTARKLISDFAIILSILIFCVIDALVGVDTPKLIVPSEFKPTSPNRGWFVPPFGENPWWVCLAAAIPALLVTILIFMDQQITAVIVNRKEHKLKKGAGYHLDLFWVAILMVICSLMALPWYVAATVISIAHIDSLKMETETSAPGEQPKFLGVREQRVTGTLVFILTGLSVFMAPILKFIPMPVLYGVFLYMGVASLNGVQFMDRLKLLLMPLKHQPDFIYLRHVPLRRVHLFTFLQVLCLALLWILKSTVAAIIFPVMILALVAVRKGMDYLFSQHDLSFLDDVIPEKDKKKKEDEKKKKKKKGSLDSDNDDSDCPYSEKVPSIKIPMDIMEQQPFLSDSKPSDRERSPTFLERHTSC
UniProt Q9Y5Q9: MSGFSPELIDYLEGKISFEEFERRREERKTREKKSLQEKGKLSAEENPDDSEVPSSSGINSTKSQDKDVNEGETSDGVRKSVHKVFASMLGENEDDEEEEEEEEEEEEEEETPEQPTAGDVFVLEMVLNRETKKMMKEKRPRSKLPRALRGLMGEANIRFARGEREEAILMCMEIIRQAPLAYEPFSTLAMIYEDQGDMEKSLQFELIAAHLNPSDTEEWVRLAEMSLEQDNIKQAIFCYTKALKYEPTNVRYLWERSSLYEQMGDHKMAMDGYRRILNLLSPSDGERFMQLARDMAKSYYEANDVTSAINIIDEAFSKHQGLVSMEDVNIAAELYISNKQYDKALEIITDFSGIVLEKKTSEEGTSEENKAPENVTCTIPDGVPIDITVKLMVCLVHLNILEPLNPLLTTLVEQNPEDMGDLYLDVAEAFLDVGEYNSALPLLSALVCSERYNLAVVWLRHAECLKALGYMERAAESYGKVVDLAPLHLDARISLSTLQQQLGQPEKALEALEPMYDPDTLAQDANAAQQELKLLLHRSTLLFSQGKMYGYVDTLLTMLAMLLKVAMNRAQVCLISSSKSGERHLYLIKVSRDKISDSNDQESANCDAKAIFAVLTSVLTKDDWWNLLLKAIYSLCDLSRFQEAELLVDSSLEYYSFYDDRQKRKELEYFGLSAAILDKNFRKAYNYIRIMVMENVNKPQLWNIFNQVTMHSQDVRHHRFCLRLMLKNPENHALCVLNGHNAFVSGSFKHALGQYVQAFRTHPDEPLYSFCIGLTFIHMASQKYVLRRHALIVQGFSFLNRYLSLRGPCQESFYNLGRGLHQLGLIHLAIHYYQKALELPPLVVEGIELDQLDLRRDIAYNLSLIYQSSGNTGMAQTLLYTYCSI
UniProt Q9Y448: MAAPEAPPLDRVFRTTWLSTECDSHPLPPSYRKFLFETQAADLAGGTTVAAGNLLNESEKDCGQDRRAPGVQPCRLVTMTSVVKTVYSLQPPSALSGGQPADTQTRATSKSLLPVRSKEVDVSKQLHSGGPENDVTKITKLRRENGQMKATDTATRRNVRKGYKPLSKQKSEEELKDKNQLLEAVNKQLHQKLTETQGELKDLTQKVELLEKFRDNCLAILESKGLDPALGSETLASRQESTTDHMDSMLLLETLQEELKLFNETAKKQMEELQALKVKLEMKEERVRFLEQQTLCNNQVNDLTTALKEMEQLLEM

These targets were tested with Nc1ncnc2c1ncn2[C@@H]1O[C@H](COP(=O)(O)OP(=O)(O)OP(=O)(O)O)[C@@H](O)[C@H]1O [adenosine triphosphate] (assay: NP40-soluble protein abundance relative to vehicle (solubility fold change) (ratio); higher = more soluble protein in presence of ATP). Details: concentration: 0.1mM.
How it was run: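 Across three independent experiments, values are fold changes against the detergent-processed vehicle for each replicate, based on vsn-normalised intensities. The samples were Jurkat crude lysate treated with eight concentrations (0.1 to 10 mM) for 10 min at room temperature and then 3 min at 37 °C. Lysate was solubilised with 0.8% NP40 and benzonase, ultracentrifuged, and the supernatant analysed by TMT-labelled LC-MS/MS.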

**Q.** For RAD54L2 (UniProt Q9Y4B4), which NP40-soluble protein abundance is on record?
**A.** Its NP40-soluble protein abundance is 1.01 ± 0.042.

**Q.** Which NP40-soluble protein abundance does the source give for DNMT3A (UniProt Q9Y6K1) here?
**A.** The NP40-soluble protein abundance was 0.998 ± 0.017.

**Q.** For RBM19 (UniProt Q9Y4C8), which NP40-soluble protein abundance is on record?
**A.** Its NP40-soluble protein abundance is 0.992 ± 0.043.

**Q.** How did the NP40-soluble protein abundance turn out when THRAP3 (UniProt Q9Y2W1) was run?
**A.** Its NP40-soluble protein abundance is 1.03 ± 0.025.

**Q.** CCDC9 (UniProt Q9Y3X0) was tested. Which NP40-soluble protein abundance did it give?
**A.** The NP40-soluble protein abundance was 1.04 ± 0.089.

**Q.** For SEC23IP (UniProt Q9Y6Y8), which NP40-soluble protein abundance is on record?
**A.** The NP40-soluble protein abundance was 0.994 ± 0.041.

**Q.** How did the NP40-soluble protein abundance turn out when UBIAD1 (UniProt Q9Y5Z9) was run?
**A.** The NP40-soluble protein abundance was 0.984 ± 0.065.

**Q.** Which NP40-soluble protein abundance does the source give for LRRC42 (UniProt Q9Y546) here?
**A.** Its NP40-soluble protein abundance is 1.06 ± 0.089.

**Q.** How did the NP40-soluble protein abundance turn out when RRP7A (UniProt Q9Y3A4) was run?
**A.** The NP40-soluble protein abundance was 0.917 ± 0.082.

**Q.** Which NP40-soluble protein abundance does the source give for DERA (UniProt Q9Y315) here?
**A.** Its NP40-soluble protein abundance is 0.969 ± 0.026.

**Q.** SAMM50 (UniProt Q9Y512) was tested. Which NP40-soluble protein abundance did it give?
**A.** Its NP40-soluble protein abundance is 1.04 ± 0.078.

**Q.** How did the NP40-soluble protein abundance turn out when DDX49 (UniProt Q9Y6V7) was run?
**A.** The NP40-soluble protein abundance was 0.967 ± 0.098.

**Q.** With UniProt Q9Y5W8 and related entries as the target, how does the NP40-soluble protein abundance read?
**A.** The NP40-soluble protein abundance was 1.04 ± 0.11.

**Q.** Which NP40-soluble protein abundance does the source give for UFC1 (UniProt Q9Y3C8) here?
**A.** Its NP40-soluble protein abundance is 0.897 ± 0.17.

**Q.** For UniProt Q9Y2U5, which NP40-soluble protein abundance is on record?
**A.** Its NP40-soluble protein abundance is 1 ± 0.035.

**Q.** Which NP40-soluble protein abundance does the source give for “X5CMH5 and related entries (UniProt Q03519)” here?
**A.** The NP40-soluble protein abundance was 1.1 ± 0.076.

**Q.** How did the NP40-soluble protein abundance turn out when DYNC1LI1 (UniProt Q9Y6G9) was run?
**A.** The NP40-soluble protein abundance was 0.948 ± 0.044.

**Q.** Which NP40-soluble protein abundance does the source give for UniProt Q9Y2D5 and related entries here?
**A.** Its NP40-soluble protein abundance is 0.862 ± 0.0087.

**Q.** Which NP40-soluble protein abundance does the source give for RRP15 (UniProt Q9Y3B9) here?
**A.** The NP40-soluble protein abundance was 0.935 ± 0.072.

**Q.** How did the NP40-soluble protein abundance turn out when UniProt Q9Y2X0-2|Q9Y2X0-3|Q9Y2X0 was run?
**A.** The NP40-soluble protein abundance was 1.1 ± 0.094.

**Q.** Which NP40-soluble protein abundance does the source give for UniProt Q9Y6J0 and related entries here?
**A.** Its NP40-soluble protein abundance is 1.01 ± 0.041.

**Q.** F11R (UniProt Q9Y624) was tested. Which NP40-soluble protein abundance did it give?
**A.** The NP40-soluble protein abundance was 0.976 ± 0.082.

**Q.** How did the NP40-soluble protein abundance turn out when UniProt Q9Y6R1 and related entries was run?
**A.** The NP40-soluble protein abundance was 1.03 ± 0.067.

**Q.** Which NP40-soluble protein abundance does the source give for UniProt Q9Y5S9 and related entries here?
**A.** The NP40-soluble protein abundance was 0.99 ± 0.066.

**Q.** How did the NP40-soluble protein abundance turn out when UniProt Q9Y5V3 and related entries was run?
**A.** The NP40-soluble protein abundance was 0.959 ± 0.1.

**Q.** With GMPPB (UniProt Q9Y5P6) as the target, how does the NP40-soluble protein abundance read?
**A.** Its NP40-soluble protein abundance is 1.01 ± 0.073.

**Q.** For ENPP4 (UniProt Q9Y6X5), which NP40-soluble protein abundance is on record?
**A.** The NP40-soluble protein abundance was 0.995 ± 0.012.

**Q.** With GTF3C3 (UniProt Q9Y5Q9) as the target, how does the NP40-soluble protein abundance read?
**A.** Its NP40-soluble protein abundance is 1.02 ± 0.02.

**Q.** Which NP40-soluble protein abundance does the source give for UniProt Q9Y448 and related entries here?
**A.** The NP40-soluble protein abundance was 0.887 ± 0.12.

**Q.** How did the NP40-soluble protein abundance turn out when UniProt Q9Y530 was run?
**A.** Its NP40-soluble protein abundance is 0.953 ± 0.046.

**Q.** How did the NP40-soluble protein abundance turn out when HEBP2 (UniProt Q9Y5Z4) was run?
**A.** Its NP40-soluble protein abundance is 1 ± 0.046.

**Q.** How did the NP40-soluble protein abundance turn out when UniProt Q9Y2S2 and related entries was run?
**A.** The NP40-soluble protein abundance was 1.01 ± 0.053.

**Q.** How did the NP40-soluble protein abundance turn out when GSTK1 (UniProt Q9Y2Q3) was run?
**A.** Its NP40-soluble protein abundance is 0.9741 ± 0.0048.

**Q.** Which NP40-soluble protein abundance does the source give for UniProt Q9Y316 and related entries here?
**A.** Its NP40-soluble protein abundance is 1.06 ± 0.11.

**Q.** UniProt Q9Y3D5 and related entries was tested. Which NP40-soluble protein abundance did it give?
**A.** The NP40-soluble protein abundance was 0.832 ± 0.11.

**Q.** Which NP40-soluble protein abundance does the source give for SPIN1 (UniProt Q9Y657) here?
**A.** The NP40-soluble protein abundance was 1.01 ± 0.019.

Same assay, conditions: concentration: 0.5mM

**Q.** Which NP40-soluble protein abundance does the source give for RAD54L2 (UniProt Q9Y4B4) here?
**A.** The NP40-soluble protein abundance was 1.02 ± 0.025.

**Q.** DNMT3A (UniProt Q9Y6K1) was tested. Which NP40-soluble protein abundance did it give?
**A.** Its NP40-soluble protein abundance is 1.05 ± 0.046.

**Q.** For RBM19 (UniProt Q9Y4C8), which NP40-soluble protein abundance is on record?
**A.** The NP40-soluble protein abundance was 0.9863 ± 0.0093.

**Q.** THRAP3 (UniProt Q9Y2W1) was tested. Which NP40-soluble protein abundance did it give?
**A.** The NP40-soluble protein abundance was 1.2 ± 0.071.

**Q.** CCDC9 (UniProt Q9Y3X0) was tested. Which NP40-soluble protein abundance did it give?
**A.** The NP40-soluble protein abundance was 1.07 ± 0.086.

**Q.** Which NP40-soluble protein abundance does the source give for SEC23IP (UniProt Q9Y6Y8) here?
**A.** The NP40-soluble protein abundance was 1.02 ± 0.061.

**Q.** Which NP40-soluble protein abundance does the source give for UBIAD1 (UniProt Q9Y5Z9) here?
**A.** Its NP40-soluble protein abundance is 0.953 ± 0.04.

**Q.** With LRRC42 (UniProt Q9Y546) as the target, how does the NP40-soluble protein abundance read?
**A.** Its NP40-soluble protein abundance is 1.07 ± 0.058.

**Q.** Which NP40-soluble protein abundance does the source give for RRP7A (UniProt Q9Y3A4) here?
**A.** Its NP40-soluble protein abundance is 0.948 ± 0.023.

**Q.** DERA (UniProt Q9Y315) was tested. Which NP40-soluble protein abundance did it give?
**A.** The NP40-soluble protein abundance was 0.9649 ± 0.0081.

**Q.** How did the NP40-soluble protein abundance turn out when SAMM50 (UniProt Q9Y512) was run?
**A.** Its NP40-soluble protein abundance is 1 ± 0.013.

**Q.** How did the NP40-soluble protein abundance turn out when DDX49 (UniProt Q9Y6V7) was run?
**A.** Its NP40-soluble protein abundance is 1.07 ± 0.17.

**Q.** UniProt Q9Y5W8 and related entries was tested. Which NP40-soluble protein abundance did it give?
**A.** The NP40-soluble protein abundance was 1.01 ± 0.092.

**Q.** Which NP40-soluble protein abundance does the source give for UFC1 (UniProt Q9Y3C8) here?
**A.** The NP40-soluble protein abundance was 0.84 ± 0.14.

**Q.** For UniProt Q9Y2U5, which NP40-soluble protein abundance is on record?
**A.** The NP40-soluble protein abundance was 1 ± 0.034.

**Q.** With “X5CMH5 and related entries (UniProt Q03519)” as the target, how does the NP40-soluble protein abundance read?
**A.** The NP40-soluble protein abundance was 1.09 ± 0.034.

**Q.** With DYNC1LI1 (UniProt Q9Y6G9) as the target, how does the NP40-soluble protein abundance read?
**A.** Its NP40-soluble protein abundance is 0.985 ± 0.073.

**Q.** Which NP40-soluble protein abundance does the source give for UniProt Q9Y2D5 and related entries here?
**A.** Its NP40-soluble protein abundance is 0.888 ± 0.033.

**Q.** Which NP40-soluble protein abundance does the source give for RRP15 (UniProt Q9Y3B9) here?
**A.** The NP40-soluble protein abundance was 0.9637 ± 0.0077.

**Q.** With UniProt Q9Y2X0-2|Q9Y2X0-3|Q9Y2X0 as the target, how does the NP40-soluble protein abundance read?
**A.** The NP40-soluble protein abundance was 1.06 ± 0.042.

**Q.** For UniProt Q9Y6J0 and related entries, which NP40-soluble protein abundance is on record?
**A.** The NP40-soluble protein abundance was 1.01 ± 0.042.

**Q.** With F11R (UniProt Q9Y624) as the target, how does the NP40-soluble protein abundance read?
**A.** The NP40-soluble protein abundance was 0.942 ± 0.024.

**Q.** For UniProt Q9Y6R1 and related entries, which NP40-soluble protein abundance is on record?
**A.** The NP40-soluble protein abundance was 0.734 ± 0.1.

**Q.** UniProt Q9Y5S9 and related entries was tested. Which NP40-soluble protein abundance did it give?
**A.** The NP40-soluble protein abundance was 1.02 ± 0.058.

**Q.** UniProt Q9Y5V3 and related entries was tested. Which NP40-soluble protein abundance did it give?
**A.** Its NP40-soluble protein abundance is 0.986 ± 0.08.

**Q.** How did the NP40-soluble protein abundance turn out when GMPPB (UniProt Q9Y5P6) was run?
**A.** Its NP40-soluble protein abundance is 0.99 ± 0.069.

**Q.** ENPP4 (UniProt Q9Y6X5) was tested. Which NP40-soluble protein abundance did it give?
**A.** The NP40-soluble protein abundance was 0.978 ± 0.11.

**Q.** GTF3C3 (UniProt Q9Y5Q9) was tested. Which NP40-soluble protein abundance did it give?
**A.** Its NP40-soluble protein abundance is 1.03 ± 0.022.

**Q.** How did the NP40-soluble protein abundance turn out when UniProt Q9Y448 and related entries was run?
**A.** The NP40-soluble protein abundance was 0.852 ± 0.15.

**Q.** For UniProt Q9Y530, which NP40-soluble protein abundance is on record?
**A.** The NP40-soluble protein abundance was 0.984 ± 0.034.

**Q.** HEBP2 (UniProt Q9Y5Z4) was tested. Which NP40-soluble protein abundance did it give?
**A.** Its NP40-soluble protein abundance is 1 ± 0.046.

**Q.** UniProt Q9Y2S2 and related entries was tested. Which NP40-soluble protein abundance did it give?
**A.** The NP40-soluble protein abundance was 0.985 ± 0.023.

**Q.** GSTK1 (UniProt Q9Y2Q3) was tested. Which NP40-soluble protein abundance did it give?
**A.** The NP40-soluble protein abundance was 0.963 ± 0.032.

**Q.** Which NP40-soluble protein abundance does the source give for UniProt Q9Y316 and related entries here?
**A.** Its NP40-soluble protein abundance is 1.01 ± 0.14.

**Q.** Which NP40-soluble protein abundance does the source give for UniProt Q9Y3D5 and related entries here?
**A.** The NP40-soluble protein abundance was 0.857 ± 0.12.

**Q.** Which NP40-soluble protein abundance does the source give for SPIN1 (UniProt Q9Y657) here?
**A.** The NP40-soluble protein abundance was 1.09 ± 0.051.
